{"sequences": {"note": "Chains of the proteins cited; added tags and fusions are not shown. Residues count along the entry.", "UniProt Q14114, residues 33-963": "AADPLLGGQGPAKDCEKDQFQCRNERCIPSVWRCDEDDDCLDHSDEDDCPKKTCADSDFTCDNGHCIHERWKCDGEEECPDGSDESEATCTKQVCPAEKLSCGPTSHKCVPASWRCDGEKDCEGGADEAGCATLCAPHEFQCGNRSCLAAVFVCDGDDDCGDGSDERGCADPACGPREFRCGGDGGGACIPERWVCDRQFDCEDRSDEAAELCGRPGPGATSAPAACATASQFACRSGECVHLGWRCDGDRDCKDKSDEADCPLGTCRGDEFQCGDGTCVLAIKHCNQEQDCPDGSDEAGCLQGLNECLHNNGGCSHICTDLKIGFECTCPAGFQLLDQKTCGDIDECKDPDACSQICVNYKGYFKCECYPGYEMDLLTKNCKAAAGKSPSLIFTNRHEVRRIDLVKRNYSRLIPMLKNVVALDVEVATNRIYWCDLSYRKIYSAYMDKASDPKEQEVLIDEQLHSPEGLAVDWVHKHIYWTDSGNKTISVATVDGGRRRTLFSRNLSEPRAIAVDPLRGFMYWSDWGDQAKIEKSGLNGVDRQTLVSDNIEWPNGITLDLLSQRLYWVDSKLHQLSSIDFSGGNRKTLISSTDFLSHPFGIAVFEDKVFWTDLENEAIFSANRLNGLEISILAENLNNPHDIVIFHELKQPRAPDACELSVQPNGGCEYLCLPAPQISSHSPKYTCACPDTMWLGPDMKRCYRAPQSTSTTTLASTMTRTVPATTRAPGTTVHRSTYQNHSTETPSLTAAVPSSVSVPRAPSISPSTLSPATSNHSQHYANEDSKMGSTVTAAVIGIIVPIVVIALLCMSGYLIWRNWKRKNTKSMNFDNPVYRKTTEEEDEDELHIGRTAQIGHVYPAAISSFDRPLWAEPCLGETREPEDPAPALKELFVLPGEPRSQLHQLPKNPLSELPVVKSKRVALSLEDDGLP"}, "source": "paper PMC3976305", "key": {"[1]": {"molecular_target": "T1, myc-SNX17 (full-length mouse SNX17 with a 9xmyc epitope) (mouse) (UniProt Q8BVL3)", "T1 sequence": "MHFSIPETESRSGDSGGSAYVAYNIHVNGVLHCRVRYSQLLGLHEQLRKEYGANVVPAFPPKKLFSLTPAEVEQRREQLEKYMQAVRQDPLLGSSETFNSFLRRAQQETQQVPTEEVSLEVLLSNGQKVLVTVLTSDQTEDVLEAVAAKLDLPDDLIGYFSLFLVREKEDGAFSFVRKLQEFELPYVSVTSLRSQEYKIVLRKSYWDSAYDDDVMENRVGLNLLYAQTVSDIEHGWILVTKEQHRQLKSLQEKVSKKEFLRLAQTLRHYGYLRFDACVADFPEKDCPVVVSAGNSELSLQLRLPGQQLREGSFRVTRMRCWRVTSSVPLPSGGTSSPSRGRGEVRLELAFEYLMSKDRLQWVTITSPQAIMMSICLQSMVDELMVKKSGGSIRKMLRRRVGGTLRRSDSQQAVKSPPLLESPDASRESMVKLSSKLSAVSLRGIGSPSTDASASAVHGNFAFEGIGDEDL", "experiment": "co-IP; extracts of HEK293 cells transiently transfected with myc-SNX17 and HA-ApoER2 (wild type or NPxA); immunoprecipitated with anti-myc, blotted with anti-HA"}, "[2]": {"molecular_target": "T2, GST-SNX17 (full-length SNX17 fused to GST) (UniProt Q8BVL3)", "T2 sequence": "T1 sequence", "experiment": "pull-down; GST-SNX17 (full length) on glutathione agarose beads incubated with lysates of HEK 293 cells transfected with HA-ApoER2 wild-type or NPxY/A; HUNT buffer, 3 h at 4°C; anti-HA western blot; only the target purified"}}, "note": "These are yes or no findings as the source states them, for the method shown. In cells and extracts the contact can be indirect. Some entries that bind do so weakly or less than the wild type. Sequences can lack the tags named with a protein.", "data": [{"substance": "HA-ApoER2 wild-type (from UniProt Q14114 33-963) (receptor)", "values": [{"measurement": "binding", "setting": "[1]", "value": "binds"}, {"measurement": "binding", "setting": "[2]", "value": "binds"}]}]}
